Experimental data as given in PMC11282742.
No constants are given. Whether binding was seen depends on the method and setting. Binding seen in cells or lysates may run through a third protein. Some entries that bind do so weakly or less than the wild type. For part of these data: Sequences can lack the tags named with a protein.

Chains of the proteins cited; added tags and fusions are not shown. Residues count along the entry.
UniProt P37173, residues 23-567: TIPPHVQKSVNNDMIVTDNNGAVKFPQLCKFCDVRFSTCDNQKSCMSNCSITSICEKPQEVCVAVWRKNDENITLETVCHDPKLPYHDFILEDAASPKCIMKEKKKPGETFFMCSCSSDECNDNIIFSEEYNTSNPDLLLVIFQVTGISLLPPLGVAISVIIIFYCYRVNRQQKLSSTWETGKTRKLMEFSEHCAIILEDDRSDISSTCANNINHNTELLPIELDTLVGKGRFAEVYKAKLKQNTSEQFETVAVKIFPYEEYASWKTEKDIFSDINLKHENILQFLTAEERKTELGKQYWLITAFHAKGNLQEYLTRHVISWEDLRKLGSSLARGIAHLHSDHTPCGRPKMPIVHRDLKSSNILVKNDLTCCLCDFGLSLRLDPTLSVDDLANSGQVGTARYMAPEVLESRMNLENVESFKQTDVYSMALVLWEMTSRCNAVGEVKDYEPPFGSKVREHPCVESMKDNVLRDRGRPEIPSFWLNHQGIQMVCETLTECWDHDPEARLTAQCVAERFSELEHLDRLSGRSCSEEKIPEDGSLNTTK
UniProt Q9HCE7: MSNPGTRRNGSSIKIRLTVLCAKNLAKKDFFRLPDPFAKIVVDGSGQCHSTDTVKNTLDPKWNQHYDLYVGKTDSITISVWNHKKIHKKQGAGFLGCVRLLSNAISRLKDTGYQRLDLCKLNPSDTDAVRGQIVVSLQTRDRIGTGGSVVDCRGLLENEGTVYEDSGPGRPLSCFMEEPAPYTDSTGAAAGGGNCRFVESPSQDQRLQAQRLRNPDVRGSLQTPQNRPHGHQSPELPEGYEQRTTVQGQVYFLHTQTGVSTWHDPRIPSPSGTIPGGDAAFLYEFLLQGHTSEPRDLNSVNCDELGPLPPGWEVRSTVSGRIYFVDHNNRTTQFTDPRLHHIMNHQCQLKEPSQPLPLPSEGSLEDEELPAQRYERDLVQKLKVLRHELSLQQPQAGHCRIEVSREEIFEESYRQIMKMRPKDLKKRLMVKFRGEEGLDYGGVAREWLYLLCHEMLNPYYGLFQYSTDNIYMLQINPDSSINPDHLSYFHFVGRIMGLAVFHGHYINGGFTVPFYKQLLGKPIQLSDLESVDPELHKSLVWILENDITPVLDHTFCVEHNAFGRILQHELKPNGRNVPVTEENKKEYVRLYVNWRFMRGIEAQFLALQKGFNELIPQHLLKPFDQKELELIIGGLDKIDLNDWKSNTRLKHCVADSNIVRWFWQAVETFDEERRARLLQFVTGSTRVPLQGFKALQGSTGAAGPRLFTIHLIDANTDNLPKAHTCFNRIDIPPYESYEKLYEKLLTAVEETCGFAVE

Assays:
[1] = biological target: T1, His-SLC14A1 (UniProt Q13336); assay: co-IP; 293 T cells transfected with His-SLC14A1 and Flag-TβRII; lysates immunoprecipitated with anti-His antibodies, Flag-tagged protein detected by immunoblot
T1 sequence: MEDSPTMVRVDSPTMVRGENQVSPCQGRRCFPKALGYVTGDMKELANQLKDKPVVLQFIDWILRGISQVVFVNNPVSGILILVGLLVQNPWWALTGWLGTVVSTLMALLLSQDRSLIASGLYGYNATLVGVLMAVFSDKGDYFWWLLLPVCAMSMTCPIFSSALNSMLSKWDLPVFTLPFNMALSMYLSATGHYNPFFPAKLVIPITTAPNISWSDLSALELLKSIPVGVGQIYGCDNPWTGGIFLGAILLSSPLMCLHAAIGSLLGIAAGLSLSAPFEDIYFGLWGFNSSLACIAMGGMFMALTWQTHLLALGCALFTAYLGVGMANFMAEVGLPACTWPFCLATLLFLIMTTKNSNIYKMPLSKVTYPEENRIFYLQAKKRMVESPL

[2] = biological target: Transforming growth factor beta receptor 2 (TβRII) (human (endogenous in SW480 and HCT116)) (UniProt P37173); assay: co-IP; endogenous TβRII and Smurf1; lysates of SW480 cells overexpressing SLC14A1 or vector and of HCT116 cells with SLC14A1 knockdown or control; IP with anti-TβRII antibody, immunoblot for Smurf1
[3] = biological target: T2, Solute Carrier Family 14 Member 1 (SLC14A1) (human (endogenous in SW480)) (UniProt Q13336); assay: co-IP; endogenous proteins in SW480 cell lysate; IP with anti-SLC14A1 or anti-TβRII antibody, protein A/G-agarose, washed with PBS, immunoblot
T2 sequence: T1 sequence

Flag-TβRII (from UniProt P37173 23-567) (receptor)
binding [1]: binds

E3 ubiquitin ligase Smurf1 (from UniProt Q9HCE7 1-757) (enzyme)
binding [2]: binds

Transforming growth factor beta receptor 2 (TβRII) (from UniProt P37173 23-567)
binding [3]: binds
